# Measurements as given in the supplement of paper PMC10338343.
# ± gives the standard deviation. This is a selection; strong and weak results do not stand in their true shares. Many of these values have a large error.
# Tested on: MILI (PIWIL2) piRISC loaded with piRNA #2 (26 nt)
# Experiment: pre-steady-state target cleavage rate (min^-1); MIWI and MILI are mouse PIWI proteins and EfPiwi is from a freshwater sponge; tags in brackets are library labels; higher = faster piRNA-guided slicing of the target
# Conditions: guide: piRNA #2 5'p-UUAGGUAACCCAGUAGAUCCAGAGGA; auxiliary factor: 500 nM mouse GTSF1
# How it was run: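 With or without 500 nM GTSF1 partner protein, 1 nM active affinity-purified piRISC carrying one synthetic guide was mixed with 0.1 nM transcribed, DNA-blocked target RNA library in HEPES–potassium acetate buffer at 33 °C for 0–8 or 0–960 min. Uncleaved targets were sequenced and normalised to depth and to weakly complementary targets, three trials were pooled, and k3 was capped at 0.0001 min^-1. The pre-steady-state cleavage rate came from a burst-and-steady-state fit.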
row,Sequence,pre-steady-state target cleavage rate
1,CUUAAGGAGACGAUCUACUGGGUUACCAUA,0.000944 ± 0.0047
2,CUUAAGGAGUGGAUCUUGAGGGUUACCUAA,0.00115 ± 0.0065
3,CUUAAGGAGACCUACUACAGCGUUACCUAA,0.000593 ± 0.0098
4,CUUAAGGAGACGAUCUACUGCCUUACCUAA,0.000198 ± 0.028
5,CUUAAGGAGAGGAUCUACUGGCAUACCUAA,0.000128 ± 0.038
6,CUUAAGGAGACCUUCUAGCUGGGUUACCUAA,0.000401 ± 0.014
7,CUUAACCUCUGCAUCUACUGGGUUACCUUA,0.178 ± 0.048
8,CUUAAGCUCUGGCAUCUACUGGGUUACCUAA,0.453 ± 0.15
9,CUUAUCCUCUGGAUCUAUGGGUUACCUAA,0.0334 ± 0.0086
10,CUUAUCCUCUGGAUCUACUGGGUUCCCUAA,0.321 ± 0.13
11,CUUAAGGAGUGGAUCUACUGGUGUUACCUAA,0.000326 ± 0.021
12,CUUAAGGUCUGGAUCUUACUGGGUUACCUAA,0.00211 ± 0.0044
13,CUUAAGGACUCGAUCUUCUGGGUUACCUAA,0.00187 ± 0.011
14,CUUAAGGAGACCUACUACGGGGUUACCUAA,0.00105 ± 0.012
15,CUUAAGGAGACCUACUACUGAGUUACCUAA,0.00084 ± 0.0097
16,CUUAAGGAGACCUUCAACUGGGUAACCUAA,0.000101 ± 0.051
17,CUUAAGGUCUGGAUCUACUGGGUUACCUAU [g2:g23:cont:t1U],0.101 ± 0.014
18,CUUAAGGAGACGAUCACUGGGUUACCUAA,0.000337 ± 0.014
19,CUUAAGGAGACCUAGAUGUGGCUUUCCUAA,0.000189 ± 0.03
20,CUUAAGCUCUGGAUCUACUGGGCUUACCUAA,0.019 ± 0.0061
21,CUUAUCCUCUGGACUCUACUGGGUUACCUAA,0.0887 ± 0.019
22,CUUAACCUCUGGAUGUACUCGGUUACCUAA,0.00207 ± 0.0043
23,CUUAAGGAGACCUUCUACUGCGGUUACCUAA,0.00138 ± 0.0066
24,CUUAAGGAGACCUACUACUGUGGUUACCUAA,< 0.0001

row,Sequence,pre-steady-state target cleavage rate
1,CUUAAGGAGACCUUCUACUGGGUUAACCUAA,0.000908 ± 0.01
2,CUUAAGGAGACCUAGAUCUGGGAAACCUAA,0.000106 ± 0.066
3,CUUAAGGAGACCAACUACUGGGAUACCUAA,0.000343 ± 0.027
4,CUUAAGGAGACCUAGAUGACGGUUACCGAA,< 0.0001
5,CUUAAGGAGACCAUCUACUGGGUUAGCUUA,0.000172 ± 0.042
6,CUUAAGGAGAGGAUCAACUGGGUUACCUUA,0.00153 ± 0.006
7,CUUAUCCUCUGGAUCAACAGGGUUACCUAA,0.0724 ± 0.01
8,CUUAAGGUCUGGAUCUACUGGCGUUACCUAA,0.000459 ± 0.011
9,CUUAAGGACUGGAUCUACUGGGAUACCUUA,0.0015 ± 0.015
10,CUUAAGGAGACCUAGAUGACGGUUACCUAU [g2:g10:cont:t1U],0.000107 ± 0.052
11,CUUAUCCUCUGGAUCUAGACGGUUACCUAA,0.00208 ± 0.0054
12,CUUAAGGACUGGAUCUACGGGUUACCUAA,0.001 ± 0.013
13,CUUAAGGAGUGGAUCUUGUGGGUUACCUAA,0.00248 ± 0.0034
14,CUUAAGGAGUGGUUCUACUGGGUAACCUAA,0.00608 ± 0.0068
15,CUUAAGGAGACCAUCUACUGGGCUACCUAA,0.000408 ± 0.035
16,CUUAAGGAGACGAUCUUCUGGGUAACCUAA,0.00194 ± 0.005
17,CUUAUCCUCUCGAUCUACUGGGUUACCAAA,0.13 ± 0.025
18,CUUAAGGAGACCAUCUACCGGGUUACCUAA,0.000828 ± 0.012
19,CUUAAGGAGAGGAUGUACUGGGUUACCUAA,0.00413 ± 0.0059
20,CUUAACCUCUGGUCUACUGGGUUACCUAA,0.333 ± 0.11
21,CUUAACCUCUGGUUCUACUGGGUUACCUUA,0.3 ± 0.087
22,CUUAAGGACGGAUCUACUGGGUUACCUAA,0.0115 ± 0.018
23,CUUAAGGAGACCAUCUACUGGGUUCACCUAA,0.000487 ± 0.022
24,CUUAAGGACUGGAUCUUCUGGGUUUCCUAA,0.00038 ± 0.029

row,Sequence,pre-steady-state target cleavage rate
1,CUUAAGGAGACCAUCUACUGGCUUACCUAA,0.000801 ± 0.0081
2,CUUAAGCUCUGGAUCUACUCGGUUACCUUA,0.00122 ± 0.0094
3,CUUAAGGAGACCAUCUACUCGGGUUACCUAA,0.000353 ± 0.026
4,CUUAAGGAGAGGAUCAACUGGGUUUCCUAA,0.000999 ± 0.006
5,CUUAAGGAGACCUAGAUGUCCCUUACCUAA,0.000437 ± 0.022
6,CUUAAGGAGACGAUCUACUGGGGUUACCUAA,0.00224 ± 0.0045
7,CUUAUCCUCUGGAUCUACUGGGUAUCCUAA,0.0336 ± 0.014
8,CUUAAGGAGACGAUCUACUGUGUUACCUAA,0.00088 ± 0.013
9,CUUAAGGAGACCUUCUACUGGGUUACGUUA,0.00055 ± 0.015
10,CUUAAGGACAGGAUCUACUGGGAUACCUAA,0.00261 ± 0.0087
11,CUUAAGGAGAGGAUCUAUUGGGUUACCUAA,0.00181 ± 0.0055
12,CUUAAGGACAGGAUCUACUGGGUUUCCUAA,0.00491 ± 0.0063
13,CUUAAGGAGACCCUCUACUGGGUUACCUAA,0.000648 ± 0.012
14,CUUAAGGAGACCUUCAUCUGGGUUACCUAA,0.000868 ± 0.01
15,CUUAAGGAGAGGAUCUACUGGGAUUACCUAA,0.00243 ± 0.005
16,CUUAAGGAGAGGAACUACUGGGAUACCUAA,0.000293 ± 0.024
17,CUUAAGGAGACGAUCUACUGGGUUACCGAA,0.000704 ± 0.012
18,CUUAAGGAGAGGAUCUACUGCGGUUACCUAA,0.000283 ± 0.015
19,CUUAAGGAGACCUAGUACUGGGUUACCAA,0.000186 ± 0.038
20,CUUAAGGAGACCAUCUUACUGGGUUACCUAA,0.000706 ± 0.015
21,CUUAAGGAGUGGAUCUACGGGUUACCUAA,0.0019 ± 0.0046
22,CUUAACCUCUGGAUCUUCUGGCUUACCUAA,0.000284 ± 0.02
23,CUUAAGGAGACGACUACUGGGUUACCUAA,0.000637 ± 0.0092

# An excerpt of these results, bar-delimited.
row | Sequence | pre-steady-state target cleavage rate
8 | CUUAAGCUCUGGCAUCUACUGGGUUACCUAA | 0.453 ± 0.15
9 | CUUAUCCUCUGGAUCUAUGGGUUACCUAA | 0.0334 ± 0.0086
10 | CUUAUCCUCUGGAUCUACUGGGUUCCCUAA | 0.321 ± 0.13
